{"source": "patent US20240228536A1", "about": "“PEPTIDES FOR USE IN SKIN AND HAIR PIGMENTATION” (Follicum AB, priority 2020, published 2024)", "tested_on": "C57BL/6 mouse model", "test": "In vivo hair growth promotion efficacy, topical", "conditions": "for anagen induction (skin color change pink to black): 50 μL/cm2, 5 days/week for 4 weeks + 1 week observation", "key": {"[1]": {"conditions": "High dose 0.5% topical formulation"}, "[2]": {"conditions": "Low dose 0.005% topical formulation"}, "[3]": {"conditions": "Medium dose 0.05% topical formulation"}}, "note": "Not every detail of the peptide structures is certain; ends, links or a residue may be inferred. Peptide text beside a SMILES is read from it.", "data": [{"smiles": "CC[C@H](C)[C@H](NC(=O)[C@H](CC(=O)O)NC(=O)CNC(=O)[C@H](CC(=O)O)NC(=O)[C@H](Cc1ccc(O)cc1)NC(=O)[C@@H](NC(=O)[C@H](CC(=O)O)NC(=O)[C@@H](N)C(C)C)[C@@H](C)O)C(=O)N[C@@H](CO)C(=O)N[C@H](C(=O)N[C@H](C(=O)N[C@@H](Cc1ccc(O)cc1)C(=O)NCC(=O)N[C@@H](CC(C)C)C(=O)N[C@@H](CCCNC(=N)N)C(=O)O)C(C)C)C(C)C", "note": "[FOL-005] (H-VDTYDGDISVVYGLR-OH; N-terminus and C-terminus assumed)", "values": [{"measurement": "hair growth", "setting": "[1]", "value": "3/7"}, {"measurement": "visual melanogenesis in the peeled skin", "setting": "[1]", "value": "3/7"}, {"measurement": "anagen induction (skin color change pink to black)", "setting": "[1]", "value": "3/7"}, {"measurement": "hair growth", "setting": "[2]", "value": "No hair growth was observed"}, {"measurement": "visual melanogenesis in the peeled skin", "setting": "[2]", "value": "1/7"}, {"measurement": "anagen induction (skin color change pink to black)", "setting": "[2]", "value": "1/7"}, {"measurement": "hair growth", "setting": "[3]", "value": "1/7"}, {"measurement": "visual melanogenesis in the peeled skin", "setting": "[3]", "value": "2/7"}, {"measurement": "anagen induction (skin color change pink to black)", "setting": "[3]", "value": "2/7"}]}]}
